Assay results: patent publication US20240247072A1 (KEYMED BIOSCIENCES, published 2024)
Results are given in words; binding and its absence hold for the method and conditions named. Binding calls can cover weak binding; strength is not graded here.

Target: recombinant cynomolgus monkey CD70 protein (cynomolgus monkey)
Assay: ELISA binding, hybridoma supernatant, monkey CD70

- binding: binds
B1: 10C19-D11 hybridoma antibody (antibody, V domains shown)
VH: QVQLQQSGPGLVQPSQSLSITCTVSGFSLTTYAVHWFRQSPGQGLEWLGVIWSTGITDFNAAFISRLNINKDSSKSQIFFKMISLQPNDTAIYYCGRNSYYGNLYAMDYWGQGTSVTVSS
VL: DIVLTQSPTSLAVSLGQRATISCRASKSVSASGYNFMHWYQQKPGQPPKLLIYLASNLESGVPARFSGSGSETDFTLNIHPVEEGDAATYYCQHSRELPLTFGAGTKLELK
notes: Mouse antibody in hybridoma culture supernatant
